{"sequences": {"note": "By UniProt entry, the sequences of proteins in these tests, tags left out. Residues count along the entry.", "UniProt O95750, residues 25-216": "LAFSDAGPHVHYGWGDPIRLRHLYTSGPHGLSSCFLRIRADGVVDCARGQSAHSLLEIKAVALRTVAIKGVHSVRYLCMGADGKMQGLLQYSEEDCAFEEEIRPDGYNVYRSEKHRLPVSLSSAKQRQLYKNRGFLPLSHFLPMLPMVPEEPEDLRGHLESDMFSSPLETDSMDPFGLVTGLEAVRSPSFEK"}, "source": "patent US20110076262A1", "target": "Human FGF19 (human) (UniProt O95750)", "test": "Biacore of IgG", "note": "Results are given in words; binding and its absence hold for the method and conditions named. Some binding calls cover weakened binding; strength is not graded here.", "data": [{"binder": "humanized 1A6 clone with S34G (1 change from 1A6-graft) (antibody, V domains shown) VH: EVQLVESGGGLVQPGGSLRLSCAASGFSLTTYGVHWVRQAPGKGLEWVGVIWPGGGTDYNAAFISRFTISRDNSKNTLYLQMNSLRAEDTAVYYCVRKEYANLYAMDYWGQGTLVTVSS VL: DIQMTQSPSSLSASVGDRVTITCKASQDINSFLGWYQQKPGKAPKLLIYRANRLVDGVPSRFSGSGSGTDFTLTISSLQPEDFATYYCLQYDEFPLTFGQGTKVEIKR", "values": [{"measurement": "binding", "result": "binds"}]}]}
